The supplement of paper PMC10849652
The other results are listed elsewhere or left out.

The chains behind the UniProt entries cited, without tags or fusion partners. Where a name states a change or a piece, a line headed by the entry shows the natural chain unless it says otherwise.
UniProt O14965: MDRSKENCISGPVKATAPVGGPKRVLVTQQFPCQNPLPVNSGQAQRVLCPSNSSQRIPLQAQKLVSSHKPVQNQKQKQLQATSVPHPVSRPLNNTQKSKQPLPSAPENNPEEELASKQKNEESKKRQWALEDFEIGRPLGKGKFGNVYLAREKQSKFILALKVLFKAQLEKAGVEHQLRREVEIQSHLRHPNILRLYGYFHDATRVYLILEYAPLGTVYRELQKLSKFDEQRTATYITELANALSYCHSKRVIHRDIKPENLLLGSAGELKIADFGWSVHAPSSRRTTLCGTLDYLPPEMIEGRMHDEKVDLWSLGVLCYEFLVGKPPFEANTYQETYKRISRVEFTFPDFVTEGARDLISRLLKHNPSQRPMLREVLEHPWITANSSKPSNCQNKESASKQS
UniProt P61769, whole entry, looked up: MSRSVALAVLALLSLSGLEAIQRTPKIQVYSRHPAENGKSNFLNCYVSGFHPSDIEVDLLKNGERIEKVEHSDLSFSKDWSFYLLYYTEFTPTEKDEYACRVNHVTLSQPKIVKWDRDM
UniProt O95352: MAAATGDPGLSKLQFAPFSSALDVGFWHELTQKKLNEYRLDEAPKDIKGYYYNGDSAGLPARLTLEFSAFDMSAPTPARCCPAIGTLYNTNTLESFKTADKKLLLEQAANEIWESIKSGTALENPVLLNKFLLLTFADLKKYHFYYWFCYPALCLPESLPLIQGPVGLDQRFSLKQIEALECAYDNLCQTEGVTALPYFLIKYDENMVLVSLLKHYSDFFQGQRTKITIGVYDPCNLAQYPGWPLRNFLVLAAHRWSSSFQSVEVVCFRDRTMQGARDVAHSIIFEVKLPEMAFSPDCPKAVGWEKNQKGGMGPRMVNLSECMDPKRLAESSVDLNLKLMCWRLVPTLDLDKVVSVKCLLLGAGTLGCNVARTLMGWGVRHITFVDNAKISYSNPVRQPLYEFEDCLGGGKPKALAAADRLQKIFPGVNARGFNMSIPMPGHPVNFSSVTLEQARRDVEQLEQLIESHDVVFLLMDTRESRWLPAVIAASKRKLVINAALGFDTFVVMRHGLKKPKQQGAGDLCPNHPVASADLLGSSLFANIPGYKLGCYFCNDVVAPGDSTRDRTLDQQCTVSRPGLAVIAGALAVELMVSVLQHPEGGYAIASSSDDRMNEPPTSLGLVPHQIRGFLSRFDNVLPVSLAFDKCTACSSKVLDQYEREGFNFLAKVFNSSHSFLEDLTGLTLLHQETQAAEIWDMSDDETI
UniProt Q04656: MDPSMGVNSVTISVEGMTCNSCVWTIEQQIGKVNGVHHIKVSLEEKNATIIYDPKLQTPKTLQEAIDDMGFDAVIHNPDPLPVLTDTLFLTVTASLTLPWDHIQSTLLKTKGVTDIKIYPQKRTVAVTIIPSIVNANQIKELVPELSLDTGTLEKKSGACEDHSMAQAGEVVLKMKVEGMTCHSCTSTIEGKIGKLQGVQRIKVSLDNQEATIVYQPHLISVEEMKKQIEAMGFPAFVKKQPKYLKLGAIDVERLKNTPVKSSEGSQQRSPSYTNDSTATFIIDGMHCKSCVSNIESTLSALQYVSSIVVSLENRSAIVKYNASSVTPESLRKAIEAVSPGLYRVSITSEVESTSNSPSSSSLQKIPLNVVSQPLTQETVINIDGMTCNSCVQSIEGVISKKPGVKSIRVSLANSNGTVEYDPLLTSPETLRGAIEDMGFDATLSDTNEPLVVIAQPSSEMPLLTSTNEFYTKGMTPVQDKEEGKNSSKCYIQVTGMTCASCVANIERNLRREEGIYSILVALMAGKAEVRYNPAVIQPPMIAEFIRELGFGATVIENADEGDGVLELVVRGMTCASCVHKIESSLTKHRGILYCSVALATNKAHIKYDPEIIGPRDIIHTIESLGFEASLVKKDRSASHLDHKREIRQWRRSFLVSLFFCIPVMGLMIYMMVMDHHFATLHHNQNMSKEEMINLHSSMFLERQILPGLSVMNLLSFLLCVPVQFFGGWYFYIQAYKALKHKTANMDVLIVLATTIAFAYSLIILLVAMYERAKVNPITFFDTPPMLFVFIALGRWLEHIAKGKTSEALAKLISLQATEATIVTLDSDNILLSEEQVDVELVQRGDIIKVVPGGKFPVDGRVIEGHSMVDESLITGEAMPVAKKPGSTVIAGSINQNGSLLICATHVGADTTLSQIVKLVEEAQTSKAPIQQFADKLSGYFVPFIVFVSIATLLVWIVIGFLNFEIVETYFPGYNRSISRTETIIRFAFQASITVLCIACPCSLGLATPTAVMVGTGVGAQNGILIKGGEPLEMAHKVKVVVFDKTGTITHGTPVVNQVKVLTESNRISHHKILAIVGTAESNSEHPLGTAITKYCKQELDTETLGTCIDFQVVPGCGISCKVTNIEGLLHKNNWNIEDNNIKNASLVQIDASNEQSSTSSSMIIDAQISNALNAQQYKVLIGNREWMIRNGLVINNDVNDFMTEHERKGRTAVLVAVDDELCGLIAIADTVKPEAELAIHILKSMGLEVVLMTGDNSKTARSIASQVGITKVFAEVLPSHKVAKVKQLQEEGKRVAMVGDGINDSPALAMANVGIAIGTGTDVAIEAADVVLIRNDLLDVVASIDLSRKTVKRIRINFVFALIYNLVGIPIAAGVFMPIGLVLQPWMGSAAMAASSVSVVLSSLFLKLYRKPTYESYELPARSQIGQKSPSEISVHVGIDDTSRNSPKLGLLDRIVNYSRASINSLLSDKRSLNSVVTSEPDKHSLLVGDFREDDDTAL
UniProt Q9Y4P1: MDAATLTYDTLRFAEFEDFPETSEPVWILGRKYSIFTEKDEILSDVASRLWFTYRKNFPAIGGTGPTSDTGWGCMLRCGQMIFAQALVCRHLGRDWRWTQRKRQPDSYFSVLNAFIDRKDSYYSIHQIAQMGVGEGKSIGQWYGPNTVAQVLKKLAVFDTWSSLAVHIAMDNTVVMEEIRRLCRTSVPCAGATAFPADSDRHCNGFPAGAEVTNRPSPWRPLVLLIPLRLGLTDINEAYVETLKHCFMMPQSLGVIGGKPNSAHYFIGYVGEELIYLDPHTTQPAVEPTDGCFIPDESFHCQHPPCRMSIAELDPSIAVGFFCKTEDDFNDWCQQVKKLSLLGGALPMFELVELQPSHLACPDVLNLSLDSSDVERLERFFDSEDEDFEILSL
UniProt P06576, whole entry, looked up: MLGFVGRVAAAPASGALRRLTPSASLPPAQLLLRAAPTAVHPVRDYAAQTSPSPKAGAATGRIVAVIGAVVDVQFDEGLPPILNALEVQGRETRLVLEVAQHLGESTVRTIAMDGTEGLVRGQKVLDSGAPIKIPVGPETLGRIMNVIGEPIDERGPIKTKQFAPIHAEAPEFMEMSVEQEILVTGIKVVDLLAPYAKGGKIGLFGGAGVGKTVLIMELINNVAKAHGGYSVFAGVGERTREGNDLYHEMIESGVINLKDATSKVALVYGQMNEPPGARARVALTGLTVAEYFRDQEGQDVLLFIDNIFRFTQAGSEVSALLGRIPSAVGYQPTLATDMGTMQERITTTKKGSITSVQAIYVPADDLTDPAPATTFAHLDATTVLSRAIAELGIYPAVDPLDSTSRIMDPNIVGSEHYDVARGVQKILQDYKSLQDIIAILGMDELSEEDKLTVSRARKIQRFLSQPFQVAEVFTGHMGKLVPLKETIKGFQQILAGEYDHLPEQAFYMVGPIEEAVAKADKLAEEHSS
UniProt P48047: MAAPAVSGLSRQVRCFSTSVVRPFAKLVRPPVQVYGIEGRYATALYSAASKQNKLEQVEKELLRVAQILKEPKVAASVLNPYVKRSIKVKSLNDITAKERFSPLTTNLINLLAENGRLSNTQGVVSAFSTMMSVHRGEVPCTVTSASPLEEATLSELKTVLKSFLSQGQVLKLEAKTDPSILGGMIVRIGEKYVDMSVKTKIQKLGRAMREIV
UniProt Q96A05, whole entry, looked up: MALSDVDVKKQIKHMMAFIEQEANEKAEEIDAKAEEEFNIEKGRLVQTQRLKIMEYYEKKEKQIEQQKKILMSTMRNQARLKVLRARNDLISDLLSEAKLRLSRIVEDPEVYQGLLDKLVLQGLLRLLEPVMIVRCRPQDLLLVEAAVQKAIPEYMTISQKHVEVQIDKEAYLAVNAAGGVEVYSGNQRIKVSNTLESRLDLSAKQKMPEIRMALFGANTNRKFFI
UniProt P15336: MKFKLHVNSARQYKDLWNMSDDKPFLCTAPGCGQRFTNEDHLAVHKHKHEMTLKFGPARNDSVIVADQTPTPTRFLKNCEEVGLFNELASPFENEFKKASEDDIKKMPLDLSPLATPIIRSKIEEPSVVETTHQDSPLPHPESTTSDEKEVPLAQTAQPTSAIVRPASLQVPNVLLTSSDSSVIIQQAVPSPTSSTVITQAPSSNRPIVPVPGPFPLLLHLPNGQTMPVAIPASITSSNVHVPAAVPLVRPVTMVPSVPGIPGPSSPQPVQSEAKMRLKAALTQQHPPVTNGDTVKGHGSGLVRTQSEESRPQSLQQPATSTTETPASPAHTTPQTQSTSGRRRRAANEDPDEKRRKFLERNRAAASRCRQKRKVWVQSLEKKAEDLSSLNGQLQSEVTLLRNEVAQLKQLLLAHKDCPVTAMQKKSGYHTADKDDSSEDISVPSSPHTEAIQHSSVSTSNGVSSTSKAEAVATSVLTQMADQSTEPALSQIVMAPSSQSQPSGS
UniProt O00244: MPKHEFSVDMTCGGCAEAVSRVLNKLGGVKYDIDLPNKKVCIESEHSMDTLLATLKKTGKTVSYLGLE
UniProt Q96DT6: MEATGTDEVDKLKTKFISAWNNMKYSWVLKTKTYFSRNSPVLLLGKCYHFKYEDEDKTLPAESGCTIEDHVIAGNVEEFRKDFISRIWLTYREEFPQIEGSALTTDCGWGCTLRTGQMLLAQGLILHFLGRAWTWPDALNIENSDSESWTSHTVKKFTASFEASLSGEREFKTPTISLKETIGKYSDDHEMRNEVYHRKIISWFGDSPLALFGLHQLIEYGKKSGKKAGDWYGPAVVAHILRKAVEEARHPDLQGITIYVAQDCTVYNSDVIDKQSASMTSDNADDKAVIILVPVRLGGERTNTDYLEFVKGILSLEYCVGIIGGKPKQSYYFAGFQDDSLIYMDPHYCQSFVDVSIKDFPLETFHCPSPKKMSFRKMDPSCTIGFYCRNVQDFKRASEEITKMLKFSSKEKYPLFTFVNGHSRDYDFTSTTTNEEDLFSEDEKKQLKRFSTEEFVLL
UniProt O75348, whole entry, looked up: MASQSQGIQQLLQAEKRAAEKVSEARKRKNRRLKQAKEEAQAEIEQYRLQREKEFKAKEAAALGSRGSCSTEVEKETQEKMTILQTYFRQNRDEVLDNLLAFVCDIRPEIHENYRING
UniProt P36542: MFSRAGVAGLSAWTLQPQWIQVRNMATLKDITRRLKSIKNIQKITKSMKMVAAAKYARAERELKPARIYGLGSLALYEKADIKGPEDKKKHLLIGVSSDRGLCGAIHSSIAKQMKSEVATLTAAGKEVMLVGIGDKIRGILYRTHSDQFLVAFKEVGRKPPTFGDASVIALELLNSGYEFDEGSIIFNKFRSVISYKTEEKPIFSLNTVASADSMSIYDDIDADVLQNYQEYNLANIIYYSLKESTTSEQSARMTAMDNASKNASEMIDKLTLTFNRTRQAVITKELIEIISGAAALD
UniProt Q9Y294, whole entry, looked up: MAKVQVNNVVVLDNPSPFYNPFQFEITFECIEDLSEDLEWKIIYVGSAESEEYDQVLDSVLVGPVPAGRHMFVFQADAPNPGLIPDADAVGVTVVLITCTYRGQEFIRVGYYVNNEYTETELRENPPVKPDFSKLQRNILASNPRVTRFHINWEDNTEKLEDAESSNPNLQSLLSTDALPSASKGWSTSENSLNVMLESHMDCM
UniProt P56385: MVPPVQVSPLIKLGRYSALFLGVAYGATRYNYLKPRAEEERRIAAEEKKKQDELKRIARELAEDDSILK
UniProt Q9UBB4: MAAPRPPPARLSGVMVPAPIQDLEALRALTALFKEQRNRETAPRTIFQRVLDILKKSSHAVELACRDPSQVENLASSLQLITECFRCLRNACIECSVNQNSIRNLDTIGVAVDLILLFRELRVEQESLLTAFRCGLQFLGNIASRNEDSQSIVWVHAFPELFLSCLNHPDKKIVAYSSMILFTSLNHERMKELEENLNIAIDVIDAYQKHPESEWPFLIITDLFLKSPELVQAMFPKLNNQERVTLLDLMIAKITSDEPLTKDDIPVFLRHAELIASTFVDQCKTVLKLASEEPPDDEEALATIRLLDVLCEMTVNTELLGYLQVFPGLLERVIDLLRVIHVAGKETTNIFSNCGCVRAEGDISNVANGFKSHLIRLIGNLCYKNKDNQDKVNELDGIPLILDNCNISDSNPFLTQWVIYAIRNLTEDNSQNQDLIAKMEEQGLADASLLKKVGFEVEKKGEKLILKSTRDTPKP
UniProt Q9NT62, whole entry, looked up: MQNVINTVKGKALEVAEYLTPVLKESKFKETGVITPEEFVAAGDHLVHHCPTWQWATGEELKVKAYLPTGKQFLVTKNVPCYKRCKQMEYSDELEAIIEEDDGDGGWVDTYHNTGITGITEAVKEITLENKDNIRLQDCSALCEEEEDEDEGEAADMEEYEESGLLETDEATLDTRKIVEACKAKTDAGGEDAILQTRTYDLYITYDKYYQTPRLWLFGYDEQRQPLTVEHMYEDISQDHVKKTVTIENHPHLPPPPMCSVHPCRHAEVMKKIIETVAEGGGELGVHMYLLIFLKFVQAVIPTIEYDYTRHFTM

Key:
Experiment in all cases: log2 fold change, soluble protein after heating vs DMSO (PISA); higher = thermal stabilisation; K562 lysate, 10 uM; active = over 0.2 and 3.5 SD of the protein, either way, in both replicates (recomputed)
alvocidib = compound: CN1CC[C@H](c2c(O)cc(O)c3c(=O)cc(-c4ccccc4Cl)oc23)[C@H](O)C1 [alvocidib]
Procedure, shortened: (§1)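 Thermal stability, expressed as log-two fold change relative to solvent controls, is given from duplicates. Crude K562 extract in PBS pH 7.4 with 1 mM MgCl2, at 1 mg/mL protein, was treated with 10 μM compound for 30 min and heated in aliquots for 3 min across 48°C-58°C. After pooling, adjustment to 0.5% NP-40 at 4°C and centrifugation at 21,000xg for 90 min, supernatant protein was measured by TMTpro 16plex LC-MS/MS with channel sums equalised.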

Tubastatin A = compound: CN1CCc2c(c3ccccc3n2Cc2ccc(C(=O)NO)cc2)C1 [Tubastatin A]
Procedure, shortened: as §1

[1] = compound: CNC(=O)C1=CC=CC=C1NC2=NC(=NC=C2Cl)NC3=C(C=C(C=C3)N4CCOCC4)OC
Procedure, shortened: as §1

defactinib = compound: CNC(=O)c1ccc(Nc2ncc(C(F)(F)F)c(NCc3nccnc3N(C)S(C)(=O)=O)n2)cc1 [defactinib]
Procedure, shortened: as §1

[2] = compound: CNc1nc(-c2ccc3c(N)n[nH]c3c2)cc(N2C[C@@H](C(=O)NC3CCCCC3)CC[C@H]2C)n1
Procedure, shortened: as §1

encorafenib = compound: COC(=O)N[C@@H](C)CNc1nccc(-c2cn(C(C)C)nc2-c2cc(Cl)cc(NS(C)(=O)=O)c2F)n1 [encorafenib]
Procedure, shortened: as §1

[3] = compound: COC(=O)[C@H](CCSC)NC(=O)C1=C(C=C(C=C1)NC[C@H](CS)N)C2=CC=CC=C2
Procedure, shortened: as §1

alisertib = compound: COc1cc(Nc2ncc3c(n2)-c2ccc(Cl)cc2C(c2c(F)cccc2OC)=NC3)ccc1C(=O)O [alisertib]
Procedure, shortened: as §1

[4] = compound: COc1cc2nc(-c3cc(F)ccc3O)nc(N[C@@H]3CNC[C@H]3C(C)(C)O)c2cc1OC
Procedure, shortened: as §1

gefitinib = compound: COc1cc2ncnc(Nc3ccc(F)c(Cl)c3)c2cc1OCCCN1CCOCC1 [gefitinib]
Procedure, shortened: as §1

Measured: log2 fold change

AURKA (UniProt O14965)
inactive: alvocidib -0.006 | Tubastatin A 0.03 | [1] 0.586 | defactinib 0.425 | [2] 0.094 | encorafenib -0.068 | [3] 0.002 | alisertib 0.436 | [4] -0.023 | gefitinib -0.101

B2M (UniProt P61769)
inactive: alvocidib 0.035 | Tubastatin A 0.02 | [1] 0.061 | defactinib -0.02 | [2] 0.014 | encorafenib -0.002 | [3] -0.034 | alisertib 0.044 | [4] 0.006 | gefitinib -0.055

ATP1A3 isoform 3 (UniProt P13637)
inactive: alvocidib -0.059 | Tubastatin A 0.041 | [1] -0.031 | defactinib -0.011 | [2] 0.089 | encorafenib -0.005 | [3] -0.018 | alisertib -0.005 | [4] 0.031 | gefitinib 0.048

ATP11A (UniProt P98196)
inactive: alvocidib -0.002 | Tubastatin A -0.047 | [1] -0.021 | defactinib -0.017 | [2] -0.022 | encorafenib 0.028 | [3] -0.065 | alisertib -0.083 | [4] 0.01 | gefitinib 0.031

ATG7 (UniProt O95352)
inactive: alvocidib 0.01 | Tubastatin A -0.075 | [1] 0.001 | defactinib 0.012 | [2] -0.04 | encorafenib 0.021 | [3] -0.031 | alisertib 0.006 | [4] -0.008 | gefitinib 0.019

ATP7A isoform 3 (UniProt Q04656)
inactive: alvocidib -0.005 | Tubastatin A -0.004 | [1] 0.007 | defactinib -0.012 | [2] -0.041 | encorafenib 0.037 | [3] -0.003 | alisertib 0.011 | [4] 0.027 | gefitinib 0.01

ATG4B (UniProt Q9Y4P1)
inactive: alvocidib 0.052 | Tubastatin A -0.129 | [1] 0.025 | defactinib 0 | [2] -0.025 | encorafenib 0 | [3] -0.018 | alisertib 0.053 | [4] 0.02 | gefitinib -0.071

ATP11C (UniProt Q8NB49)
inactive: alvocidib -0.033 | Tubastatin A 0.001 | [1] -0.043 | defactinib -0.022 | [2] 0 | encorafenib -0.048 | [3] -0.01 | alisertib -0.023 | [4] 0.006 | gefitinib 0.002

ASPM (UniProt Q8IZT6)
inactive: alvocidib 0.017 | Tubastatin A 0.016 | [1] 0.052 | defactinib 0.013 | [2] 0.06 | encorafenib -0.002 | [3] 0.026 | alisertib -0.004 | [4] 0.003 | gefitinib 0.011

Retrieved one by one from the list above (two):
ATP1A3 isoform 3 (UniProt P13637)
inactive: alvocidib -0.059 | Tubastatin A 0.041 | [1] -0.031 | defactinib -0.011 | [2] 0.089 | encorafenib -0.005 | [3] -0.018 | alisertib -0.005 | [4] 0.031 | gefitinib 0.048

ATP11A (UniProt P98196)
inactive: alvocidib -0.002 | Tubastatin A -0.047 | [1] -0.021 | defactinib -0.017 | [2] -0.022 | encorafenib 0.028 | [3] -0.065 | alisertib -0.083 | [4] 0.01 | gefitinib 0.031

(cont.)

ATP5MF-PTCD1 (UniProt G3V325)
inactive: alvocidib -0.056 | Tubastatin A -0.008 | [1] -0.025 | defactinib 0.047 | [2] -0.039 | encorafenib 0 | [3] 0.014 | alisertib -0.042 | [4] 0.011 | gefitinib -0.02

ATP5F1B (UniProt P06576)
inactive: alvocidib 0.01 | Tubastatin A 0.052 | [1] 0.001 | defactinib 0.002 | [2] 0.027 | encorafenib 0.012 | [3] -0.049 | alisertib 0.008 | [4] 0.013 | gefitinib 0.013

ATP5PO (UniProt P48047)
inactive: alvocidib 0.068 | Tubastatin A -0.001 | [1] -0.011 | defactinib 0.012 | [2] 0.014 | encorafenib -0.032 | [3] -0.043 | alisertib -0.007 | [4] 0.006 | gefitinib 0.007

ATP6V1E2 (UniProt Q96A05)
inactive: alvocidib -0.01 | Tubastatin A 0.052 | [1] -0.014 | defactinib 0.024 | [2] 0.143 | encorafenib 0.027 | [3] 0.022 | alisertib 0.021 | [4] 0.01 | gefitinib -0.059

ATF2 (UniProt P15336)
inactive: alvocidib 0.038 | Tubastatin A -0.006 | [1] 0.003 | defactinib -0.015 | [2] 0.075 | encorafenib 0.049 | [3] 0.021 | alisertib -0.044 | [4] 0.046 | gefitinib -0.218

ATOX1 (UniProt O00244)
inactive: alvocidib 0.101 | Tubastatin A 0.055 | [1] 0.027 | defactinib 0.023 | [2] 0.108 | encorafenib -0.048 | [3] -0.031 | alisertib -0.017 | [4] 0.017 | gefitinib -0.143

ATP2A3 isoform 2 (UniProt Q93084)
inactive: alvocidib 0.081 | Tubastatin A 0.038 | [1] -0.018 | defactinib -0.016 | [2] -0.01 | encorafenib -0.043 | [3] 0.241 | alisertib -0.017 | [4] 0.022 | gefitinib -0.044

ATG4C (UniProt Q96DT6)
inactive: alvocidib -0.04 | Tubastatin A -0.019 | [1] -0.005 | defactinib 0.021 | [2] -0.043 | encorafenib 0.005 | [3] 0.158 | alisertib -0.072 | [4] 0.005 | gefitinib 0.023

ATAD3A (UniProt Q9NVI7)
inactive: alvocidib 0.062 | Tubastatin A -0.018 | [1] -0.008 | defactinib -0.077 | [2] 0.005 | encorafenib 0.081 | [3] -0.062 | alisertib 0 | [4] -0.001 | gefitinib -0.008

ATP6V1G1 (UniProt O75348)
inactive: alvocidib 0.008 | Tubastatin A 0.052 | [1] 0.011 | defactinib -0.005 | [2] 0.038 | encorafenib -0.03 | [3] 0.006 | alisertib 0.017 | [4] 0.013 | gefitinib 0.065

ATP5F1C (UniProt P36542)
inactive: alvocidib 0.012 | Tubastatin A 0.012 | [1] -0.038 | defactinib -0.02 | [2] -0.004 | encorafenib 0.009 | [3] -0.039 | alisertib -0.006 | [4] 0.011 | gefitinib 0.031

ATR (UniProt Q13535)
inactive: alvocidib -0.134 | Tubastatin A -0.067 | [1] 0.029 | defactinib -0.07 | [2] -0.001 | encorafenib 0.045 | [3] -0.193 | alisertib 0.115 | [4] 0.077 | gefitinib 0.052

ATP1A4 (UniProt Q13733)
inactive: alvocidib -0.018 | Tubastatin A 0.01 | [1] -0.064 | defactinib 0.018 | [2] -0.015 | encorafenib -0.023 | [3] 0 | alisertib -0.023 | [4] 0.021 | gefitinib 0.04

ATG9A (UniProt Q7Z3C6)
inactive: alvocidib -0.02 | Tubastatin A -0.028 | [1] -0.027 | defactinib -0.017 | [2] 0.013 | encorafenib 0.005 | [3] 0.086 | alisertib -0.018 | [4] 0.009 | gefitinib 0.04

ASF1A (UniProt Q9Y294)
inactive: alvocidib -0.035 | Tubastatin A -0.016 | [1] 0.012 | defactinib -0.022 | [2] -0.043 | encorafenib 0.021 | [3] -0.026 | alisertib -0.025 | [4] 0.027 | gefitinib 0.032

ATP5ME (UniProt P56385)
inactive: alvocidib 0.004 | Tubastatin A 0.065 | [1] 0.015 | defactinib 0.032 | [2] 0.012 | encorafenib 0.018 | [3] 0.006 | alisertib 0.042 | [4] 0.013 | gefitinib -0.037

ATXN10 (UniProt Q9UBB4)
inactive: alvocidib 0.03 | Tubastatin A -0.001 | [1] -0.002 | defactinib -0.005 | [2] -0.009 | encorafenib 0.027 | [3] -0.031 | alisertib 0.013 | [4] -0.006 | gefitinib -0.017

ASL (UniProt P04424)
inactive: alvocidib -0.021 | Tubastatin A 0.043 | [1] 0.009 | defactinib -0.024 | [2] 0.033 | encorafenib -0.015 | [3] -0.026 | alisertib 0.002 | [4] 0.004 | gefitinib 0

ATG2A isoform 3 (UniProt Q2TAZ0)
inactive: alvocidib 0.025 | Tubastatin A -0.071 | [1] 0.046 | defactinib 0.029 | [2] -0.006 | encorafenib 0.103 | [3] -0.054 | alisertib 0.079 | [4] 0.055 | gefitinib -0.061

ATG13 isoform 2 (UniProt O75143)
inactive: alvocidib -0.106 | Tubastatin A -0.035 | [1] 0.013 | defactinib 0.03 | [2] 0.026 | encorafenib 0.054 | [3] -0.045 | alisertib 0.038 | [4] 0.017 | gefitinib -0.013

ATG3 (UniProt Q9NT62)
inactive: alvocidib -0.026 | Tubastatin A 0.014 | [1] 0.032 | defactinib -0.016 | [2] -0.049 | encorafenib 0.031 | [3] -0.047 | alisertib 0.01 | [4] 0.001 | gefitinib -0.006
